PubChem BioAssay AID686938, Drosophila RNAi Screening Center | 2013
The screen tested about 23,000 reagents; this is a random part of those with a known target gene and a result. Of all reagents, 75 (0.33%) were called active. 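Raw plate signals without normalisation; calls rest on plate z-scores that were not deposited; ratio present for only 364 wells.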 A plus sign joins genes that one reagent is predicted to hit. Not stated in the record: the dose of the treatment.

Aim: 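Knock-downs reducing store-operated calcium influx in Drosophila cells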 (primary screen)
Cell system: Drosophila S2R+ cells
Reagents: long dsRNA against Drosophila genes, about 0.25 µg dsRNA per well, roughly 10,000 cells
Timing: 5 days of knock-down before the calcium assay
Treatment: thapsigargin (SERCA pump blocker) to empty calcium stores; entry signal taken 4 min after adding it
Read-out: 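Duplicate raw fluo-4 intensities per well from a plate reader, at rest and four minutes after thapsigargin emptied calcium stores; entry-to-rest ratio filled for only some wells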
Direction: calcium entry signal: higher = stronger calcium signal after store depletion; entry to resting ratio: higher = more calcium entry relative to resting level; resting calcium signal: higher = higher resting calcium signal
Units: calcium entry signal in fluorescence units; resting calcium signal in fluorescence units
Rule for the call: 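Hit if the duplicate-averaged plate z-score for entry over resting signal is under −3; wells with weak total dye signal (Fmax z < −2) or more than 5 off-targets removed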
Meaning of the calls: active = strongly reduced calcium entry; inactive = no strong reduction

The opening 2 records, ahead of the listing:
Cyp12e1 (GeneID 41272) [DRSC16622]: calcium entry signal, replicate 1 = 3.03e7; calcium entry signal, replicate 2 = 3.31e7; resting calcium signal, replicate 1 = 1.43e7; resting calcium signal, replicate 2 = 1.63e7; outcome = inactive
CG12129 (GeneID 36044) [DRSC06105]: calcium entry signal, replicate 1 = 4.23e7; calcium entry signal, replicate 2 = 3.89e7; resting calcium signal, replicate 1 = 1.83e7; resting calcium signal, replicate 2 = 1.85e7; outcome = inactive

The listing, repeating the preview:
Cyp12e1 (GeneID 41272) [DRSC16622]: calcium entry signal, replicate 1 = 3.03e7; calcium entry signal, replicate 2 = 3.31e7; resting calcium signal, replicate 1 = 1.43e7; resting calcium signal, replicate 2 = 1.63e7; outcome = inactive
CG12129 (GeneID 36044) [DRSC06105]: calcium entry signal, replicate 1 = 4.23e7; calcium entry signal, replicate 2 = 3.89e7; resting calcium signal, replicate 1 = 1.83e7; resting calcium signal, replicate 2 = 1.85e7; outcome = inactive
RIOK1 (GeneID 39309) [DRSC09853]: calcium entry signal, replicate 1 = 4.70e7; calcium entry signal, replicate 2 = 3.82e7; resting calcium signal, replicate 1 = 3.40e7; resting calcium signal, replicate 2 = 1.47e7; outcome = inactive
CG31909 (GeneID 319020) [DRSC22180]: calcium entry signal, replicate 1 = 3.19e7; calcium entry signal, replicate 2 = 5.17e7; resting calcium signal, replicate 1 = 1.54e7; resting calcium signal, replicate 2 = 2.39e7; outcome = inactive
CG34148 + P5CDh2 [DRSC13519]: calcium entry signal, replicate 1 = 4.59e7; calcium entry signal, replicate 2 = 2.67e7; resting calcium signal, replicate 1 = 2.16e7; resting calcium signal, replicate 2 = 1.30e7; outcome = inactive
CG12278 (GeneID 42486) [DRSC14494]: calcium entry signal, replicate 1 = 1.75e7; calcium entry signal, replicate 2 = 2.86e7; resting calcium signal, replicate 1 = 1.13e7; resting calcium signal, replicate 2 = 7.32e7; outcome = inactive
CG1571 (GeneID 31725) [DRSC18068]: calcium entry signal, replicate 1 = 3.33e7; calcium entry signal, replicate 2 = 3.49e7; resting calcium signal, replicate 1 = 1.55e7; resting calcium signal, replicate 2 = 1.50e7; outcome = inactive
Nmt (GeneID 38909) [DRSC11236]: calcium entry signal, replicate 1 = 2.88e7; calcium entry signal, replicate 2 = 4.09e7; resting calcium signal, replicate 1 = 1.33e7; resting calcium signal, replicate 2 = 2.04e7; outcome = inactive
CG12535 (GeneID 31311) [DRSC17838]: calcium entry signal, replicate 1 = 4.63e7; calcium entry signal, replicate 2 = 5.59e7; entry to resting ratio = 2.1; resting calcium signal, replicate 1 = 2.17e7; resting calcium signal, replicate 2 = 2.29e7; outcome = inactive
Vps51 (GeneID 37156) [DRSC06519]: calcium entry signal, replicate 1 = 4.18e7; calcium entry signal, replicate 2 = 3.85e7; resting calcium signal, replicate 1 = 1.81e7; resting calcium signal, replicate 2 = 1.91e7; outcome = inactive
XNP (GeneID 43080) [DRSC15594]: calcium entry signal, replicate 1 = 2.12e7; calcium entry signal, replicate 2 = 1.93e7; resting calcium signal, replicate 1 = 1.02e7; resting calcium signal, replicate 2 = 1.01e7; outcome = inactive
jigr1 (GeneID 43093) [DRSC13724]: calcium entry signal, replicate 1 = 3.27e7; calcium entry signal, replicate 2 = 3.95e7; resting calcium signal, replicate 1 = 1.59e7; resting calcium signal, replicate 2 = 1.90e7; outcome = inactive
jigr1 (GeneID 43093) [DRSC15233]: calcium entry signal, replicate 1 = 3.84e7; calcium entry signal, replicate 2 = 3.23e7; resting calcium signal, replicate 1 = 1.86e7; resting calcium signal, replicate 2 = 1.36e7; outcome = inactive
jigr1 (GeneID 43093) [DRSC22617]: calcium entry signal, replicate 1 = 4.12e7; calcium entry signal, replicate 2 = 3.78e7; resting calcium signal, replicate 1 = 2.43e7; resting calcium signal, replicate 2 = 1.84e7; outcome = inactive
